One substance from patent publication US20020102617A1 can be followed below.

By UniProt entry, the sequences of proteins in these tests, tags left out. Residues count along the entry.
UniProt P19838, residues 1-433: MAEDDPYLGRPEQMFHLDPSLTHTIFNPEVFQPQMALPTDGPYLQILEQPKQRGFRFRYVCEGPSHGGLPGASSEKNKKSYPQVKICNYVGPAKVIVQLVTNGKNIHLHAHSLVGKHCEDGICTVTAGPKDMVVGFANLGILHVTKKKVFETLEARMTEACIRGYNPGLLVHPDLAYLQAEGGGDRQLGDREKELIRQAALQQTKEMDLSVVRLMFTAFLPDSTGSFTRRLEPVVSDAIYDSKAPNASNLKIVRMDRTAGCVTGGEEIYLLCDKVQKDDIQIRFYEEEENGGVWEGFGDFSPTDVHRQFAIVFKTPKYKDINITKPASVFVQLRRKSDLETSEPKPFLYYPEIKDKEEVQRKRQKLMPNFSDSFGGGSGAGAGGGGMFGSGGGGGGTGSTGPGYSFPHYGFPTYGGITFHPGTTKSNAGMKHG
UniProt P25963: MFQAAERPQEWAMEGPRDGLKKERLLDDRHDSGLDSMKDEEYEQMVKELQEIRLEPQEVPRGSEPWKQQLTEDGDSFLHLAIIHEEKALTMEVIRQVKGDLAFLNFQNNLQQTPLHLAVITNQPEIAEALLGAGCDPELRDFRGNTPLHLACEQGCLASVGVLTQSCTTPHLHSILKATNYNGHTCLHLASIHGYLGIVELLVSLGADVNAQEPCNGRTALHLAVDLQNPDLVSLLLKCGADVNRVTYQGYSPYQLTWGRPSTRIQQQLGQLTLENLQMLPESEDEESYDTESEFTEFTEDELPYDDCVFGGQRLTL

This test has as its target p50 (of the NFκB complex) (UniProt P19838). The test can be described thus: protein microarray on aldehyde glass slide, 0.1 µg/ml fluorescent probe (FIG. 1B).

No constants are given. Whether binding was seen depends on the method and setting. Some results given as binding are weak or reduced against the parent protein; the word gives no strength.

As for “Cy3-conjugated IκBα (from UniProt P25963 1-317)”, the binding result was “binds”.
